A short description of the data set: competitive radioisotopic assay of folate in whole serum. The arrangement: species or system human.

Compound `CN1c2c(nc(N)[nH]c2=O)NCC1CNc1ccc(C(=O)N[C@@H](CCC(=O)O)C(=O)O)cc1` (some centres unmarked) [5CH3 FH4, d,1,5-methyltetrahydrofolic acid] came in with an assay sensitivity of 25 picograms.
As for `CN(Cc1cnc2nc(N)nc(N)c2n1)c1ccc(C(=O)N[C@@H](CCC(=O)O)C(=O)O)cc1` [Methotrexate, 4-(amino-N^10-methylpteroylglutamic acid)], the “effect on the assay” value (agent present in the serum sample) is reported as “unaffected”.

The values are drawn from patent publication US3972991A, “Radioisotopic assay and binder therefor” (priority 1974, dated 1976).
